Test results as given in PubChem BioAssay AID2685 (National Center for Advancing Translational Sciences (NCATS), 2010).
This is one part of the list. Shown are side measurements of this screen, not its main read-out; they come without a call. Compounds called inactive in the main read-out are mostly missing here. Words in brackets tell the shape of the fitted curve; partial curves, single points and poor fits give uncertain potencies.

Test: qHTS Assay for Lipid Storage Modulators in Drosophila S3 Cells;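 on cell number change: cells counted by Cell Tracker Red CMTPX staining in the red channel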
Settings: BODIPY lipid droplet fluorescence, 18-24 h; for cell number change: measured here: cell count max response, cells fed with added oleic acid
Procedure, shortened: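 Drosophila S3 cells got compounds at several concentrations plus oleic acid (400 uM solution). Laser-scanning cytometry with 488 nm excitation read lipid droplets at 500-530 nm and cells at 575-640 nm. Percent activity was relative to 20 uM Triacsin C.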

[1] = measured here: lipid fluorescence (Fed channel) AC50, cells fed with added oleic acid
[2] = measured here: cell number channel AC50, cells fed with added oleic acid

Q: With `Cc1cc(C)c(NS(=O)(=O)c2ccc(Cl)c(C(=O)O)c2)c(C)c1` as the molecule, how does the cell number change read?
A: The cell number change was 2.43%.

Q: What about the AC50 [1] of the same molecule?
A: The AC50 was 0.0651 µM [rising, full curve, poor fit].

Q: For `COc1ccc(C(=O)Nc2nc(CC(=O)NCCc3ccccc3OC)cs2)cc1`, which AC50 [2] is on record?
A: The AC50 was 6.51 µM [rising, single point].

Q: With `COc1ccc(-c2nn(-c3ccccc3)cc2C(=O)O)cc1N` as the molecule, how does the cell number change read?
A: Its cell number change is -0.825%.

Q: What about the AC50 [1] of the same molecule?
A: Its AC50 is 6.51 µM [falling, single point].

Q: Which results are given for `O=C(CCCC(=O)NCc1ccccc1)NCc1ccccc1`?
A: cell number change: -9.91%; AC50 [1]: 23.1 µM [falling, partial curve, poor fit]

Q: What does the source list for `COc1ccc(/C=N/Nc2ncc(Br)cn2)c(OC)c1`?
A: cell number change: -43%; AC50 [2]: 11.6 µM [falling, partial curve]

Q: Which cell number change does the source give for `COC(=O)C1=C(C(=O)OC)[C@@H]2Nc3ccccc3[C@@]23C[C@@H](C(=O)OC)N=C3N1` here?
A: Its cell number change is -11.9%.

Q: Which cell number change does the source give for `O=C(c1ccc2c(=O)n(Cc3ccccc3Cl)c(=S)[nH]c2c1)N1CCOCC1` here?
A: The cell number change was 11.6%.

Q: What about the AC50 [1] of the same molecule?
A: The AC50 was 23.1 µM [rising, partial curve].

Q: For `CCOc1ccccc1N1CC(C(=O)Nc2ccccc2N2CCOCC2)CC1=O` (configuration not stated), which cell number change is on record?
A: The cell number change was 0.115%.

Q: What about the AC50 [1] of the same molecule?
A: The AC50 was 6.51 µM [rising, single point].

Q: With `Cc1ccnc(NC(=O)c2ccc(Cl)c(NC(=O)c3ccccc3C)c2)c1` as the molecule, how does the AC50 [1] read?
A: The AC50 was 29.1 µM [falling, single point].

Q: With `O=C(NC1CC1)c1sc2cc([N+](=O)[O-])ccc2c1Cl` as the molecule, how does the cell number change read?
A: The cell number change was -14.2%.

Q: What about the AC50 [2] of the same molecule?
A: The AC50 was 0.461 µM [falling, single point].

Q: And the AC50 [1]?
A: The AC50 was 0.517 µM [falling, full curve, poor fit].

Q: For `COc1ccc(CC(=O)c2ccc(OC)c(OC)c2)cc1`, which AC50 [1] is on record?
A: Its AC50 is 2.31 µM [rising, full curve, poor fit].

Q: With `CC(=O)N1CCOc2ccc(S(=O)(=O)Nc3ccc(C)cn3)cc21` as the molecule, how does the AC50 [1] read?
A: Its AC50 is 0.231 µM [falling, full curve, poor fit].

Q: For `CCCNC(=O)CSc1nc2ccc(OCC)cc2s1`, which cell number change is on record?
A: The cell number change was 37.7%.

Q: And the AC50 [2]?
A: Its AC50 is 9.2 µM [rising, partial curve, poor fit].

Q: For `COc1ccc2c(C)nc(Nc3nc(C)c(C)c(=O)[nH]3)nc2c1`, which cell number change is on record?
A: Its cell number change is -7.61%.

Q: What about the AC50 [1] of the same molecule?
A: Its AC50 is 20.6 µM [falling, partial curve, poor fit].

Q: Which cell number change does the source give for `Cc1ccc(S(=O)(=O)N2CCC(C(=O)NCc3ccccc3Cl)CC2)cc1` here?
A: The cell number change was 87.3%.

Q: And the AC50 [2]?
A: Its AC50 is 16.4 µM [rising, partial curve].

Q: With `OCc1cc(-c2ccccn2)no1` as the molecule, how does the cell number change read?
A: Its cell number change is -4.59%.

Q: What about the AC50 [1] of the same molecule?
A: Its AC50 is 0.092 µM [falling, full curve, poor fit].

Q: With `O=C(COc1ccccc1)N1CCN=C1SCc1ccc(F)cc1` as the molecule, how does the AC50 [2] read?
A: Its AC50 is 2.31 µM [rising, single point].

Q: With `O=C(NCC1CCCO1)c1nn2c(C(F)(F)F)cc(-c3ccc(Br)o3)nc2c1Br` (configuration not stated) as the molecule, how does the cell number change read?
A: The cell number change was -14.3%.

Q: What about the AC50 [1] of the same molecule?
A: Its AC50 is 0.206 µM [rising, single point].

Q: For `O=C(NNc1ccccc1)/C(=C\c1cccnc1)NC(=O)c1ccccc1`, which cell number change is on record?
A: Its cell number change is -33.8%.

Q: What about the AC50 [2] of the same molecule?
A: Its AC50 is 14.6 µM [falling, partial curve].

Q: Which cell number change does the source give for `Cc1ccc(S(=O)(=O)NC2CC(C)(C)NC(C)(C)C2)c(C)c1C` here?
A: The cell number change was -5.47%.

Q: And the AC50 [1]?
A: Its AC50 is 29.1 µM [rising, single point].

Q: For `CC(C)=NNc1nc2sc3c(c2c(=O)[nH]1)CC(C)(C)OC3`, which cell number change is on record?
A: Its cell number change is -8.82%.

Q: And the AC50 [1]?
A: The AC50 was 0.58 µM [falling, partial curve, poor fit].

Q: For `COc1ccc([C@@H](NC(=O)OC(C)(C)C)C(=O)OC(C)(C)C)cc1`, which cell number change is on record?
A: Its cell number change is -8.84%.

Q: Which cell number change does the source give for `O=C(NC(=S)N1CCN(c2ccc(F)cc2)CC1)C12CC3CC(CC(C3)C1)C2` here?
A: Its cell number change is -66.7%.

Q: What about the AC50 [2] of the same molecule?
A: The AC50 was 29.1 µM [falling, single point].

Q: And the AC50 [1]?
A: The AC50 was 0.231 µM [falling, full curve, poor fit].

Q: With `Cc1ccc(C(C(=O)NCc2ccco2)N(C(=O)CNC(=O)c2cccs2)c2ccc(C)cc2C)cc1` (configuration not stated) as the molecule, how does the cell number change read?
A: The cell number change was 40.8%.

Q: Which cell number change does the source give for `COc1ccccc1CNC(=O)c1ccc(OC(C)C)cc1` here?
A: The cell number change was 13.6%.

Q: What about the AC50 [2] of the same molecule?
A: Its AC50 is 0.103 µM [rising, full curve, poor fit].

Q: What does the source list for `CCCCc1c(O)nc(SCCC(=O)O)[nH]c1=O`?
A: cell number change: -8.27%; AC50 [1]: 18.4 µM [falling, partial curve]

Q: With `CCOC(=O)Cc1c(C)c2c(C)[nH]nc2oc1=O` as the molecule, how does the cell number change read?
A: Its cell number change is 15.7%.

Q: For `Cc1ccccc1NC(=O)Cc1nc(COC(=O)c2cccc(C)c2O)cs1`, which cell number change is on record?
A: The cell number change was 1.52%.

Q: What about the AC50 [1] of the same molecule?
A: The AC50 was 29.1 µM [falling, single point].

Q: Which cell number change does the source give for `CCOC(=O)c1c(C)n(CC(COC(C)=O)OC(C)=O)c2ccc(OC(C)=O)cc12` (configuration not stated) here?
A: Its cell number change is 46.8%.

Q: What about the AC50 [2] of the same molecule?
A: Its AC50 is 0.259 µM [rising, full curve].

Q: And the AC50 [1]?
A: Its AC50 is 0.82 µM [rising, partial curve].

Q: For `CCCCc1cc(=O)oc2c(C)c(OCC(=O)NCc3ccccn3)ccc12`, which cell number change is on record?
A: The cell number change was -8.06%.

Q: What about the AC50 [1] of the same molecule?
A: Its AC50 is 0.58 µM [rising, single point].

Q: With `O=C(Nc1ccc(Br)cc1)NC1CCCCCCC1` as the molecule, how does the cell number change read?
A: The cell number change was -56.9%.

Q: What about the AC50 [2] of the same molecule?
A: Its AC50 is 29.1 µM [falling, single point].

Q: What about the AC50 [1] of the same molecule?
A: The AC50 was 29.1 µM [falling, single point].
